Reference: the supplement of paper PMC4604168 (melanoma cell lines)
Some of the results follow. Single values are uncertain, as repeats are few or missing.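 The apoptosis fraction was the count of cleaved-PARP antibody-stained nuclei relative to all DNA-stained nuclei, imaged in 1,536-well plates. Screening doses were set so most cells survived, and baseline and induced cleaved-PARP levels vary greatly across cell lines.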

Each compound was assayed on RVH-421 (assay: cleaved PARP positive nuclei fraction relative to DMSO control; melanoma cells; higher = more apoptosis). Conditions: library dose: low library concentration; 72 h.

Row | Compound | cleaved PARP positive nuclei fraction [%]
1 | O=C(Nc1cccc(Cl)c1)Nc1ncc(CCNc2ncnc3ccsc23)s1 + COc1cc(N2CCC(N3CCN(C)CC3)CC2)ccc1Nc1ncc(Cl)c(Nc2ccccc2S(=O)(=O)C(C)C)n1 [NVP-TAE684] (first compound 0.0008 µM, partner dose 0.08 µM) | 14.6
2 | C[C@]1(c2nc3c(C(N)=O)cccc3[nH]2)CCCN1 [Veliparib] + O=S(=O)(c1ccccc1)N(CC(F)(F)F)c1ccc(C(O)(C(F)(F)F)C(F)(F)F)cc1 [T0901317] (first compound 1.4 µM, partner dose 1.4 µM) | 112
3 | Cc1nc(Nc2ncc(C(=O)Nc3c(C)cccc3Cl)s2)cc(N2CCN(CCO)CC2)n1 [dasatanib] + CCc1ccc(CCOc2ccc(CC3SC(=O)NC3=O)cc2)nc1 [pioglitazone] (first compound 0.004 µM, partner dose 2 µM) | 98.3
4 | CC1(C)NC(=O)N(c2ccc([N+](=O)[O-])c(C(F)(F)F)c2)C1=O [nilutamide] + O=c1cc(-c2cccc3c2Sc2ccccc2S3)oc(N2CCOCC2)c1 [KU55933] (first compound 1 µM, partner dose 1 µM) | 60.2
5 | COc1cc(Nc2ncc(F)c(Nc3ccc4c(n3)NC(=O)C(C)(C)O4)n2)cc(OC)c1OC [Tamatinib] + Oc1nc(-c2ccc(C(F)(F)F)cc2)nc2c1CSCC2 [XAV939] (first compound 0.4 µM, partner dose 2 µM) | 61.9
6 | O=C(CCCCCCC(=O)Nc1ccccc1)NO [vorinostat] + O=C(O)C(=O)Nc1sc2c(c1C(=O)O)CCNC2 [TCS401] (first compound 0.08 µM, partner dose 1.66667 µM) | 24.2

A different layout for part of the listing above.
Row	Compound	cleaved PARP positive nuclei fraction [%]
1	O=C(Nc1cccc(Cl)c1)Nc1ncc(CCNc2ncnc3ccsc23)s1 + COc1cc(N2CCC(N3CCN(C)CC3)CC2)ccc1Nc1ncc(Cl)c(Nc2ccccc2S(=O)(=O)C(C)C)n1 [NVP-TAE684] (first compound 0.0008 µM, partner dose 0.08 µM)	14.6
2	C[C@]1(c2nc3c(C(N)=O)cccc3[nH]2)CCCN1 [Veliparib] + O=S(=O)(c1ccccc1)N(CC(F)(F)F)c1ccc(C(O)(C(F)(F)F)C(F)(F)F)cc1 [T0901317] (first compound 1.4 µM, partner dose 1.4 µM)	112

These compounds were tested on SkMel28 in the same assay as above. Conditions: library dose: low library concentration; 72 h.

Row | Compound | cleaved PARP positive nuclei fraction [%]
7 | O=C(CCCCCCC(=O)Nc1ccccc1)NO [vorinostat] + COc1ccc2c(c1)CCC1C2CCC2(C)C(NCCCCCCN3C(=O)C=CC3=O)CCC12 [U73122] (first compound 0.08 µM, partner dose 0.4 µM) | 216
8 | Cn1nnc2c(C(N)=O)ncn2c1=O [temozolomide] + COc1ccc(COc2ccc(Cc3cnc(N)nc3N)cc2OC)cc1 [GW2580] (first compound 2 µM, partner dose 1 µM) | 171
9 | OCCn1cc(-c2cnc3nnn(Cc4ccc5ncccc5c4)c3n2)cn1 + COc1ccc(-c2ccc3c(N4CCOCC4)nc(N4C[C@@H](C)O[C@@H](C)C4)nc3n2)cc1CO [KU0063794] (first compound 1 µM, partner dose 0.02 µM) | 127
10 | Cc1ccc(NC(=O)c2cccc(N(C)C)c2)cc1NC(=O)c1ccc(O)cc1 + Cn1cc(/C=C2\C(=O)Nc3cccnc32)c2ccccc21 [GW441756] (first compound 2 µM, partner dose 0.4 µM) | 132
11 | Cc1ccc(NC(=O)c2cccc(N(C)C)c2)cc1NC(=O)c1ccc(O)cc1 + CCCCCCCCCCCC1=C(O)C(=O)C=C(O)C1=O [Embelin] (first compound 2 µM, partner dose 1.2 µM) | 80.6
12 | Cn1cncc1[C@@](N)(c1ccc(Cl)cc1)c1ccc2c(c1)c(-c1cccc(Cl)c1)cc(=O)n2C [tipifarnib] + Cc1cc([N+](=O)[O-])ccc1NS(=O)(=O)c1cc(Cl)ccc1Cl [FH535] (first compound 0.01 µM, partner dose 1 µM) | 131
13 | Cn1c(Nc2ccc(C(F)(F)F)cc2)nc2cc(Oc3ccnc(-c4ncc(C(F)(F)F)[nH]4)c3)ccc21 + COc1ccc2c(c1)CCC1C2CCC2(C)C(NCCCCCCN3C(=O)C=CC3=O)CCC12 [U73122] (first compound 0.08 µM, partner dose 0.4 µM) | 172
14 | Cn1cncc1[C@@](N)(c1ccc(Cl)cc1)c1ccc2c(c1)c(-c1cccc(Cl)c1)cc(=O)n2C [tipifarnib] + Oc1cc(-c2nc(-c3ccccc3)[nH]c2-c2ccncc2)ccc1Cl [L779450] (first compound 0.01 µM, partner dose 0.2 µM) | 161
15 | OCCn1cc(-c2cnc3nnn(Cc4ccc5ncccc5c4)c3n2)cn1 + O=C(O)C(=O)Nc1sc2c(c1C(=O)O)CCNC2 [TCS401] (first compound 1 µM, partner dose 1.66667 µM) | 80.8
16 | C=CCn1c(=O)c2cnc(Nc3ccc(N4CCN(C)CC4)cc3)nc2n1-c1cccc(C(C)(C)O)n1 + Oc1nc(-c2ccc(C(F)(F)F)cc2)nc2c1CSCC2 [XAV939] (first compound 0.02 µM, partner dose 2 µM) | 85.1
17 | Nc1cccc2c1CN(C1CCC(=O)NC1=O)C2=O (stereo not drawn) [lenalidomide] + CCCCCCCCCCCC1=C(O)C(=O)C=C(O)C1=O [Embelin] (first compound 1 µM, partner dose 1.2 µM) | 48.2
18 | C[C@@H]1CCN(C(=O)CC#N)C[C@@H]1N(C)c1ncnc2[nH]ccc12 + Oc1cc(-c2nc(-c3ccccc3)[nH]c2-c2ccncc2)ccc1Cl [L779450] (first compound 1 µM, partner dose 0.2 µM) | 129
19 | Cc1cc(N2CCOCC2)cc2[nH]c(-c3c(NC[C@@H](O)c4cccc(Cl)c4)cc[nH]c3=O)nc12 + Cc1cc([N+](=O)[O-])ccc1NS(=O)(=O)c1cc(Cl)ccc1Cl [FH535] (first compound 0.2 µM, partner dose 1 µM) | 98.2
20 | C=CCn1c(=O)c2cnc(Nc3ccc(N4CCN(C)CC4)cc3)nc2n1-c1cccc(C(C)(C)O)n1 + O=C1NC(=O)/C(=C/c2ccc(-c3ccc(F)cc3O)o2)S1 [AS252424] (first compound 0.02 µM, partner dose 1 µM) | 98.3
21 | Cc1ccc(NC(=O)c2cccc(N(C)C)c2)cc1NC(=O)c1ccc(O)cc1 + N#Cc1c(O)c2c(-c3ccc(-c4ccccc4O)cc3)csc2[nH]c1=O [A769662] (first compound 2 µM, partner dose 2 µM) | 69.6
22 | Cn1cncc1[C@@](N)(c1ccc(Cl)cc1)c1ccc2c(c1)c(-c1cccc(Cl)c1)cc(=O)n2C [tipifarnib] + CCN(CC)CCCCNc1ncc2cc(-c3cc(OC)cc(OC)c3)c(NC(=O)NC(C)(C)C)nc2n1 [PD173074] (first compound 0.01 µM, partner dose 0.1 µM) | 125
23 | O=C(CCCCCCC(=O)Nc1ccccc1)NO [vorinostat] + CCCCCCCCCCCC1=C(O)C(=O)C=C(O)C1=O [Embelin] (first compound 0.08 µM, partner dose 1.2 µM) | 130
24 | Cn1nnc2c(C(N)=O)ncn2c1=O [temozolomide] + Cn1cc(/C=C2\C(=O)Nc3cccnc32)c2ccccc21 [GW441756] (first compound 2 µM, partner dose 0.4 µM) | 154
25 | Nc1cccc2c1CN(C1CCC(=O)NC1=O)C2=O (stereo not drawn) [lenalidomide] + COc1cc2ncnc(Nc3ccc(Oc4ccccc4)cc3)c2cc1OC [SrcI1] (first compound 1 µM, partner dose 2 µM) | 144
26 | COc1cc(Nc2ncc(F)c(Nc3ccc4c(n3)NC(=O)C(C)(C)O4)n2)cc(OC)c1OC [Tamatinib] + CCc1ccc(CCOc2ccc(CC3SC(=O)NC3=O)cc2)nc1 [pioglitazone] (first compound 0.4 µM, partner dose 2 µM) | 237
27 | Cc1nc(Nc2ncc(C(=O)Nc3c(C)cccc3Cl)s2)cc(N2CCN(CCO)CC2)n1 [dasatanib] + COc1cc(N2CCC(N3CCN(C)CC3)CC2)ccc1Nc1ncc(Cl)c(Nc2ccccc2S(=O)(=O)C(C)C)n1 [NVP-TAE684] (first compound 0.004 µM, partner dose 0.08 µM) | 285
28 | Cn1c(Nc2ccc(C(F)(F)F)cc2)nc2cc(Oc3ccnc(-c4ncc(C(F)(F)F)[nH]4)c3)ccc21 + Cc1cc([N+](=O)[O-])ccc1NS(=O)(=O)c1cc(Cl)ccc1Cl [FH535] (first compound 0.08 µM, partner dose 1 µM) | 155
29 | O=C(CCCCCCC(=O)Nc1ccccc1)NO [vorinostat] + O=S(=O)(c1ccccc1)N(CC(F)(F)F)c1ccc(C(O)(C(F)(F)F)C(F)(F)F)cc1 [T0901317] (first compound 0.08 µM, partner dose 1.4 µM) | 136
30 | CC(C)(C)c1cnc(CSc2cnc(NC(=O)C3CCNCC3)s2)o1 + CCc1ccc(CCOc2ccc(CC3SC(=O)NC3=O)cc2)nc1 [pioglitazone] (first compound 0.01 µM, partner dose 2 µM) | 155
31 | COc1cc(Nc2ncc(F)c(Nc3ccc4c(n3)NC(=O)C(C)(C)O4)n2)cc(OC)c1OC [Tamatinib] + Cn1cc(/C=C2\C(=O)Nc3cccnc32)c2ccccc21 [GW441756] (first compound 0.4 µM, partner dose 0.4 µM) | 239
32 | C#Cc1cccc(Nc2ncnc3cc(OCCOC)c(OCCOC)cc23)c1 [erlotinib] + N#Cc1c(O)c2c(-c3ccc(-c4ccccc4O)cc3)csc2[nH]c1=O [A769662] (first compound 0.8 µM, partner dose 2 µM) | 137
33 | OCCn1cc(-c2cnc3nnn(Cc4ccc5ncccc5c4)c3n2)cn1 + COc1cc(N2CCC(N3CCN(C)CC3)CC2)ccc1Nc1ncc(Cl)c(Nc2ccccc2S(=O)(=O)C(C)C)n1 [NVP-TAE684] (first compound 1 µM, partner dose 0.08 µM) | 210
